The list shows a part of the results.

The nature of the assay: reduced GFP signal of wild-type E. coli, primary screen, bacterial rRNA inhibitor project, GFP/RFP fluorescence, OD600, single point (AID 720706). The note with it: E. coli WT GFP vs humanized-ribosome RFP mutants, 24 h; OD600 change: measured here: OD600 growth, DMSO median 0, no signal -100; RFP signal change: measured here: RFP humanized mutant strains, DMSO median 0, no signal -100, concentration not given here.
On to `CCCOc1ccc(NP(C)(=O)Oc2ccc(Cl)cc2)cc1` (stereo unspecified), for which the OD600 change was -36.7% and the RFP signal change is -0.916%.
As to `Nc1cccc([As](=O)(O)c2ccccc2)c1`, the OD600 change came out at 9.75% and the RFP signal change was 0.37%.
On to `O=[As](O)(c1cccs1)c1cccs1`, for which the OD600 change is 8.73% and the RFP signal change was -0.401%.
In the same order, the values of `NS(=O)(=O)c1cccc(NC(=O)COC(=O)C(O)(c2ccccc2)c2ccccc2)c1` are -3.35% and -2.33%.
With `CC1CCC(C(C)C)C(OP(=O)(Nc2ccccn2)c2ccccc2)C1` (stereo unspecified), the OD600 change is -60.4% and the RFP signal change was -18.1%.
As for `Cc1ccc(C(=O)OC2CN3CCC2CC3)cc1` (stereo unspecified), the OD600 change is 22.5% and the RFP signal change was determined as 2.67%.
With `CN(C)C1(CNC(=O)c2ccc(S(C)(=O)=O)cc2)CCCCC1`, the OD600 change was 3.59% and the RFP signal change is 3.31%.
In the same order, the values of `O=[N+]([O-])c1cc([N+](=O)[O-])c(Nc2nnnn2CCO)c([N+](=O)[O-])c1` are -0.554% and -4.45%.
In the case of `CCOC(=O)C(CC)C1=NC(C)(C)Cc2ccccc21.O=[N+]([O-])c1cc([N+](=O)[O-])c(O)c([N+](=O)[O-])c1` (stereo unspecified), the OD600 change was -4.25% and the RFP signal change was -8.34%.
In the case of `O=C(/C=C/c1ccccc1)OC1CN2CCC1CC2` (stereo unspecified), the OD600 change came to 3.66% and the RFP signal change was -0.0369%.
In the same order, the values of `CCCC1OP(=O)(Nc2ccccc2)OCC1CC` (stereo unspecified) are 9.55% and 4.14%.
On the same counts, the results for `COc1ccccc1CNC(=O)COC(=O)C(O)(c1ccccc1)c1ccccc1` are -3.57% and -1.77%.
Consider `Cc1ccc(S(=O)(=O)N(CCCN)CCCc2c(C)nc(N)[nH]c2=O)cc1.O=[N+]([O-])c1cc([N+](=O)[O-])c(O)c([N+](=O)[O-])c1`, for which the OD600 change is 4.38% and the RFP signal change was -3.81%.
`CN(C(=O)Cc1ccc(Cl)c(Cl)c1)[C@@H]1CCCC[C@H]1N1CCCC1`: the OD600 change was -2.53% and the RFP signal change came to 1.92%.
Take `CN(C(=O)Cc1ccc(Cl)c(Cl)c1)C1CCCC[C@@H]1N1CCCC1` (stereo partly specified): the OD600 change came out at 3.08% and the RFP signal change was -1.12%.
In the same order, the values of `CCC1=CC2Cc3nc4ccc(Cl)cc4c(N)c3C(C1)C2` (stereo unspecified) are -79.5% and -12.7%.
`O=C(O)C(O)c1ccc(N(CCCl)CCCl)cc1.c1ccncc1` (stereo unspecified): the OD600 change was determined as 8.63% and the RFP signal change was -0.015%.
For the molecule `O=[N+]([O-])c1cc([N+](=O)[O-])c(-n2nnc3ccccc32)c([N+](=O)[O-])c1`, the OD600 change worked out at 16.4% and the RFP signal change was -1.02%.
On to `CCOP(=O)(NC(=NC(C)c1ccccc1)NC(C)c1ccccc1)OCC` (stereo unspecified), for which the OD600 change turned out to be 3.02% and the RFP signal change is -1.55%.
On the same counts, the results for `Nc1ccc(CCCCOc2ccccc2)cc1.O=[N+]([O-])c1cc([N+](=O)[O-])c(O)c([N+](=O)[O-])c1` are -20.1% and -5.31%.
On to `CCOP(=O)(Nc1ccc(C)cn1)OCC`, for which the OD600 change was 8.5% and the RFP signal change came to 0.19%.
For `O=P1(N(CCCl)CCCl)NCCC(C(F)(F)F)O1` (stereo unspecified), the OD600 change amounted to 14.9% and the RFP signal change was -2.12%.
For `CN(Cc1cccnc1)C(=O)COc1ccc(Cl)c(Cl)c1.O=[N+]([O-])c1cc([N+](=O)[O-])c(O)c([N+](=O)[O-])c1`, the OD600 change was -5.14% and the RFP signal change is -0.66%.
Take `CC(C)(C)C(=O)NC(Sc1ncccn1)C(Cl)(Cl)Cl` (stereo unspecified): the OD600 change is 5.54% and the RFP signal change stood at 2.61%.
In the case of `Cc1cc(C)cc(OP(C)(=O)Nc2ccccn2)c1` (stereo unspecified), the OD600 change came out at 2.74% and the RFP signal change is -4.14%.
Take `CP(=O)(Nc1cccc(Br)c1)Oc1ccccc1` (stereo unspecified): the OD600 change was -41% and the RFP signal change was -5.2%.
In the same order, the values of `Cc1ccc(NCCc2c([N+](=O)[O-])cc([N+](=O)[O-])cc2[N+](=O)[O-])cc1` are -5.33% and 3.41%.
With `Nc1cccc2c([As](=O)(O)O)cccc12`, the OD600 change stood at 14.5% and the RFP signal change turned out to be 30.6%.
In the case of `CCCOP(=S)(Nc1nc(N)cc(=O)[nH]1)OCCC`, the OD600 change was determined as 2.95% and the RFP signal change was 2.7%.
In the case of `CCOP(=O)(Nc1cccc2ccccc12)OCC`, the OD600 change was determined as 1.34% and the RFP signal change turned out to be 0.943%.
On the same counts, the results for `O=C(OC1CN2CCC1CC2)c1ccc(Cl)cc1` (stereo unspecified) are 0.264% and 1.58%.
For `O=[As](O)(O)c1cccnc1`, the OD600 change came to 4.24% and the RFP signal change is -3.55%.
For `COc1cc(C(=O)NCC2(N3CCOCC3)CCCCC2)cc(Cl)c1OC(C)C`, the OD600 change is -39.4% and the RFP signal change is -0.685%.
In the case of `COc1ccccc1OP(C)(=O)Nc1cccc(Br)c1` (stereo unspecified), the OD600 change is -8.9% and the RFP signal change was -0.963%.
Consider `CS(=O)(=O)c1ccc(Cl)c(NC(=O)COC(=O)C(O)(c2ccccc2)c2ccccc2)c1`, for which the OD600 change is -6.7% and the RFP signal change was 1.13%.
`O=[As](O)(c1cccc(O)c1)c1cccc(O)c1`: the OD600 change worked out at 3.35% and the RFP signal change was -1.91%.
In the same order, the values of `Cc1cc(C)cc(OP(C)(=O)Nc2ccc(C)cc2C)c1` (stereo unspecified) are -3.57% and 11.8%.
In the case of `CCOC(=O)c1ccc(NP(C)(=O)Oc2cc(C)cc(C)c2)cc1` (stereo unspecified), the OD600 change is -0.0605% and the RFP signal change is 4.64%.
For the molecule `NC(=O)Nc1ccc([As](=O)(O)O)cc1`, the OD600 change stood at 29.4% and the RFP signal change was -6.23%.
For the molecule `N#CCCN(C(=O)COC(=O)C(O)(c1ccccc1)c1ccccc1)c1ccc(F)cc1`, the OD600 change is 4.92% and the RFP signal change is -0.323%.
`CCOP1(=S)c2c(C)nn(CCC#N)c2N=C(c2ccc(F)cc2)N1C` (stereo unspecified): the OD600 change was found to be 2.42% and the RFP signal change is -0.88%.
As for `CN(C)C(=O)c1cc([N+](=O)[O-])cc2c1-c1c(cc([N+](=O)[O-])cc1[N+](=O)[O-])C2=O`, the OD600 change is 3.4% and the RFP signal change is -2.56%.
On the same counts, the results for `CN(C(=O)Cc1ccc(Cl)c(Cl)c1)[C@H]1CC[C@@]2(CCCO2)C[C@@H]1N1CCCC1` are -1.81% and 0.893%.
Turning to `CCOP1(=S)c2c(C)nn(CCC#N)c2N=C(c2ccccc2F)N1C` (stereo unspecified), the OD600 change is 3.33% and the RFP signal change came to 1.6%.
On the same counts, the results for `O=C(O)c1cccc(Nc2c([N+](=O)[O-])cc([N+](=O)[O-])cc2[N+](=O)[O-])c1` are 6.75% and -1.1%.
With `O=P(Nc1nccs1)(Oc1ccccc1)Oc1ccccc1`, the OD600 change was -2.77% and the RFP signal change came to 0.0265%.
For the molecule `Nc1ccccc1[As](=O)(O)c1ccccc1`, the OD600 change worked out at 2.48% and the RFP signal change was -1.96%.
For the molecule `O=C(O)COc1ccc([As](=O)(O)O)cc1[N+](=O)[O-]`, the OD600 change came to 12.6% and the RFP signal change was determined as 3.1%.

These data come from PubChem BioAssay AID720706 (Broad Institute, 2013).
